According to patent US8895505B2, “Method of treatment of type 2 diabetes” (AdiStem Ltd., priority 2009, dated 2014):
Part of at least one peptide drawing is inferred or uncertain, most often the ends. No end group written: not given here.

What was measured:
[1] = tested on: dogs with canine DM; assay: Dog diabetes mellitus trials; assay type: in vivo; settings: 10 mg once a week
Protocol: A total of 48 dogs took part in the trials. Dogs where put into two groups of 24: one group was injected with the full 10 mg Thymosin beta 4 protein (TB4) once a week; and the other group was injected with 10 mg TB4-7 once a week for four weeks.
Diagnosis criteria of DM and the pre-requisites for study inclusion were:
(1) clinical signs consistent with canine DM, such as polydipsia, polyuria, polyphagia, and weight loss; (2) persistent and 24-hour fasting hyperglycemia (>200 mg/dL) for more than 2 days; (3) persistent glycosuria for more than 2 days; and (4) insulin supplementation required to maintain normal glucose levels.
Glycosylated hemoglobin and blood glucose levels where measured at before every injection and seven days after the last injection.

[2] = tested on: type 2 diabetic patients; assay: TB4-7 trial: randomized, double-blind, placebo-controlled 2-month trial in type 2 diabetic patients; assay type: in vivo, human
Protocol: The inventors have performed a single-center, randomized, double-blind, placebo-controlled 2-month trial of twice a week s.c. injection of 10 mg of TB4-7 (a peptide having the amino acid sequence LKKTETQ (SEQ ID NO:1)) in type 2 diabetic patients inadequately treated with diet/lifestyle or stable doses of common hypoglycemics for at least 3 months. The results from an interim 2 month report of that trial is provided in this example.
Patients with type 2 diabetes for >/=1 year were entered into 2 strata of hemoglobin A(1c) (HbA(1c)) levels: Stratum 1: 8.0% to 9.9%; and Stratum 2: 10.0% to 12.0%.
All subjects began a 1-month single-blind placebo run-in phase, followed by randomization in a 2:1 ratio of active treatment: placebo, to 2 months of double-blind treatment with either TB4-7 or saline placebo. Concurrent oral agents were continued unchanged throughout the study.
The primary outcome was the change in HbA(1c) from randomization; results of each stratum were analyzed independently. […] 14 subjects entered stratum 1 and 12 entered stratum 2.

[3] = Week 0 (before first injection)
[4] = Week 4 (seven days after last injection)

LKKTETQ [TB4-7, LKKTETQ]
Glucose [1, 3]: 289 ± 71 mg/dL
HbA1c [1, 3]: 7.9 ± 2.3%
Glucose ([1]; Week 1): 278 ± 73 mg/dL
HbA1c ([1]; Week 1): 7.6 ± 2.3%
Glucose ([1]; Week 2): 262 ± 81 mg/dL
HbA1c ([1]; Week 2): 7.1 ± 2.5%
Glucose ([1]; Week 3): 189 ± 76 mg/dL
HbA1c ([1]; Week 3): 6.3 ± 2.5%
Glucose [1, 4]: 175 ± 74 mg/dL
HbA1c [1, 4]: 5.2 ± 2.6%
quality of life indices ([2]; 10 mg s.c. twice a week for 2 months): significant increase
fasting plasma glucose (FPG), treatment-related differences ([2]; 10 mg s.c. twice a week for 2 months vs placebo): no significant treatment-related differences
glucose control ([2]; patients with HbA(1c) levels between 10.0% to 12.0%, twice weekly treatment for 2 months): significantly improved
HbA(1c) reduction from randomization ([2]; stratum 1 subjects (HbA1c 8.0% to 9.9%), 10 mg s.c. twice a week for 2 months): No significant HbA(1c) reductions
HbA(1c) at randomization ([2]; stratum 2 subjects (HbA1c 10.0% to 12.0%), baseline before double-blind treatment): 11.1%+/−1.0%
HbA(1c) at end-of-study ([2]; stratum 2 subjects, 10 mg s.c. twice a week for 2 months, P=0.004 vs randomization): 8.0%+/−1.9%
